The values that follow are results of earlier work, collected in patent US20160201132A1, “GENE EXPRESSION BIOMARKERS OF LAQUINIMOD RESPONSIVENESS” (Teva Pharmaceutical Industries Ltd., priority 2013, published 2016).

Each structure is given as a SMILES string.

For the data set the following is noted: in vivo; cited from earlier work.

`CCN(C(=O)c1c(O)c2c(Cl)cccc2n(C)c1=O)c1ccccc1` [LAQ, 5-chloro-N-ethyl-4-hydroxy-1-methyl-2-oxo-N-phenyl-1,2-dihydroquinoline-3-carboxamide]: the oral bioavailability entry is “high”.
